This experiment has as its target T1, FLAG-DDX28 (DEAD box protein 28, C-terminal 3x FLAG) (human) (UniProt Q9NUL7).
T1 sequence: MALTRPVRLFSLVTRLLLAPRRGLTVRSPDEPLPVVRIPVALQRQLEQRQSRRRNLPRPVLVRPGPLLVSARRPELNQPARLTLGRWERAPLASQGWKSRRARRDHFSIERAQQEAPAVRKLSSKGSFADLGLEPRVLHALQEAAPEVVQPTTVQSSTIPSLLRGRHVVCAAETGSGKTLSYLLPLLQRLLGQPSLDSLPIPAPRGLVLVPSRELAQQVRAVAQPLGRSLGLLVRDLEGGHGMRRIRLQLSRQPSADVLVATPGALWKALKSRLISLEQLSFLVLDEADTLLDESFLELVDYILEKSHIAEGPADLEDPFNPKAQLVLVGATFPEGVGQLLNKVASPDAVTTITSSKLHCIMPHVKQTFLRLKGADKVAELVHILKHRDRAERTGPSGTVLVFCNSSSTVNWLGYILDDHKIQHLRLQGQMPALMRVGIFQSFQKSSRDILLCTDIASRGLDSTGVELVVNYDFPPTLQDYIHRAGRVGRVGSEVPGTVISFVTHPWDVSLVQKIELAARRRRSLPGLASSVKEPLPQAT
Kind of experiment: co-IP.

The chains behind the UniProt entries cited, without tags or fusion partners.
UniProt Q16665: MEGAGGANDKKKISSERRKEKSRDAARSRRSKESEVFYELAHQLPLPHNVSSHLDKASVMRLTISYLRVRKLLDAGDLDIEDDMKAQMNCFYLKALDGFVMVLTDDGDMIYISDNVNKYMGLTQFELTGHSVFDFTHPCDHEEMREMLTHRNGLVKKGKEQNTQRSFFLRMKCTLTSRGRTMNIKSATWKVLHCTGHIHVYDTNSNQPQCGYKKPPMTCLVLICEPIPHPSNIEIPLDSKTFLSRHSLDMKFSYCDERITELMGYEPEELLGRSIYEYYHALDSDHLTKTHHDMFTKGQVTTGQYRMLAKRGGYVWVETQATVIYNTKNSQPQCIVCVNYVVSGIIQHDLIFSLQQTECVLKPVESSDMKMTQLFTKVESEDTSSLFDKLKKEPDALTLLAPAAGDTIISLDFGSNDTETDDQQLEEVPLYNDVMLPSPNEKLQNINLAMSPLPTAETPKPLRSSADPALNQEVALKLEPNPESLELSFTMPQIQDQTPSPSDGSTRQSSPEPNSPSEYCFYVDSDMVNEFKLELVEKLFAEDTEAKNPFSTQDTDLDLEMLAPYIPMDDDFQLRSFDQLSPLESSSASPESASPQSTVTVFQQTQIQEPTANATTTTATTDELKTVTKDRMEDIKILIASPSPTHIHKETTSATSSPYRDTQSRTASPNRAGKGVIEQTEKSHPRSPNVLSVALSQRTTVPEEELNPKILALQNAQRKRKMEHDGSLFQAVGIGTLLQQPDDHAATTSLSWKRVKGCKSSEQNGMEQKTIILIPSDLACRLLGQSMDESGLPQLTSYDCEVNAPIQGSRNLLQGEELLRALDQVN

Results are given in words; binding and its absence hold for the method and conditions named. In cells and extracts the contact can be indirect. Tags and fused reporters may be left off the sequences shown.

In the case of HA-HIF-1α (from UniProt Q16665 1-826), the binding result is given as “no binding”.

The values above are taken from doi:10.1101/632331.
